Test results taken from paper PMC3585324, “InterAKTions with FKBPs - Mutational and Pharmacological Exploration” (PLoS ONE, 2013).

Chains of the proteins cited; added tags and fusions are not shown. Lines headed by an entry give the natural chain unless they say otherwise; changes in a name come on top.
UniProt P31749: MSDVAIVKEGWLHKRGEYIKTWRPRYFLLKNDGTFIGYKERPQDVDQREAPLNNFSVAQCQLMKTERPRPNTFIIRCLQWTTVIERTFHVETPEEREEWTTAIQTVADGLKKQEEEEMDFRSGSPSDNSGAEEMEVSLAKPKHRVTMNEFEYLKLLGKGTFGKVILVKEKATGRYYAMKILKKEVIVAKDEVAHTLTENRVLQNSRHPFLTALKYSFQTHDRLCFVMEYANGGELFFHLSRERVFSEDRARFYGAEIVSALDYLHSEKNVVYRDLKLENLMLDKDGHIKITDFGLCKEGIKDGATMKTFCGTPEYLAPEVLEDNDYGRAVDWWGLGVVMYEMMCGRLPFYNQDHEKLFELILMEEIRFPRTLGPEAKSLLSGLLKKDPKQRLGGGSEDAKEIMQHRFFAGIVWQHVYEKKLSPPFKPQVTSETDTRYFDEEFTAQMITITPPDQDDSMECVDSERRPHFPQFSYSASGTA

Legend:
[1] = target: T1, FLAG-tagged FKBP51 (expressed in cells) (UniProt Q13451); test: co-IP; HEK293T cells co-transfected; lysis in NETN buffer; FLAG or HA affinity resin overnight at 4 °C, 5 washes, Western blot; in some panels cells were treated before lysis with FK1706, FK506 or rapamycin (1 µM, 1 h), AT7867 (10 µM, 1 h), wortmannin, starvation or FCS
T1 sequence: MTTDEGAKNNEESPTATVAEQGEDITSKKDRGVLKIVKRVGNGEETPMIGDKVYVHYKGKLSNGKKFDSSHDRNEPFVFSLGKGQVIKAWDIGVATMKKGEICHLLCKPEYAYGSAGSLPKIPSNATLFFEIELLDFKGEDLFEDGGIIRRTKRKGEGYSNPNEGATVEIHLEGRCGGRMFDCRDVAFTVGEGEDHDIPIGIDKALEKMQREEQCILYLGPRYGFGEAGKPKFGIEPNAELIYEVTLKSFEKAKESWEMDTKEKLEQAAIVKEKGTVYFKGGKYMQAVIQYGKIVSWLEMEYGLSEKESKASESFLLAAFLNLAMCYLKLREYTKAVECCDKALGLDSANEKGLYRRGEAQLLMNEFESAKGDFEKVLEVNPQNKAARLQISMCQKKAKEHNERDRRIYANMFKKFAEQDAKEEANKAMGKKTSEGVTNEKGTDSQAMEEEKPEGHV

GST_Akt1^S473D = GST_Akt1^S473D (UniProt P31749); test: pull-down; GST pull-down: 15 µM FKBPs or Cyp40 with 22 µM GST_Akt1 S473D or GST_Akt1 S473D_ΔPH on glutathione resin, 3 h, 4 °C, NETN buffer (20 mM Tris-HCl pH 8.0, 100 mM NaCl, 1 mM EDTA, 0.5% igepal); AMP-PNP (5 mM), rapamycin (1 µM) or DMSO where indicated; Western blot; both purified
[2] = target: HA-tagged S6K (p70 ribosomal S6 kinase); test: co-IP; HeLa cells co-transfected with FLAG-tagged FKBPs and HA-tagged S6K, treated with rapamycin (25 nM) or DMSO for 60 min; lysates immunoprecipitated, Western blot
GST_Akt1^S473D_ΔPH = test: pull-down; GST pull-down: 15 µM FKBPs or Cyp40 with 22 µM GST_Akt1 S473D or GST_Akt1 S473D_ΔPH on glutathione resin, 3 h, 4 °C, NETN buffer (20 mM Tris-HCl pH 8.0, 100 mM NaCl, 1 mM EDTA, 0.5% igepal); AMP-PNP (5 mM), rapamycin (1 µM) or DMSO where indicated; Western blot; both purified

Molecule: GST-tagged Akt1 (expressed in HEK293T)
binding [1]: binds

Molecule: GST-ΔN_SGK^S422D (domain or fragment)
binding [1]: binds

Molecule: purified PPIase-deficient mutant of the isolated FK506-binding domain of FKBP51 (from UniProt Q13451) (domain or fragment)
binding (GST_Akt1^S473D): binds

B2: FLAG-tagged FKBP51 (expressed in cells) (protein, UniProt Q13451 1-457)
chain: T1 sequence
binding [2]: binds

B3: purified FLAG-tagged FKBP51 (natural protein, UniProt Q13451 1-457, looked up)
chain: T1 sequence
notes: FKBP51, His-tagged full length; also called FKBP51_FLAG; purified FKBP51
binding (GST_Akt1^S473D_ΔPH): binds

More lines, now with the values ahead:

binding [1]: binds
Molecule: GST-ΔN_SGK (wild type) (domain or fragment)

binding [2]: binds
B1: purified FKBP52 (natural protein, UniProt Q02790 1-459, looked up)
chain: MTAEEMKATESGAQSAPLPMEGVDISPKQDEGVLKVIKREGTGTEMPMIGDRVFVHYTGWLLDGTKFDSSLDRKDKFSFDLGKGEVIKAWDIAIATMKVGEVCHITCKPEYAYGSAGSPPKIPPNATLVFEVELFEFKGEDLTEEEDGGIIRRIQTRGEGYAKPNEGAIVEVALEGYYKDKLFDQRELRFEIGEGENLDLPYGLERAIQRMEKGEHSIVYLKPSYAFGSVGKEKFQIPPNAELKYELHLKSFEKAKESWEMNSEEKLEQSTIVKERGTVYFKEGKYKQALLQYKKIVSWLEYESSFSNEEAQKAQALRLASHLNLAMCHLKLQAFSAAIESCNKALELDSNNEKGLFRRGEAHLAVNDFELARADFQKVLQLYPNNKAAKTQLAVCQQRIRRQLAREKKLYANMFERLAEEENKAKAEASSGDHPTDTEMKEEQKSNTAGSQSQVETEA
notes: FKBP52, His-tagged full length

Results are given in words; binding and its absence hold for the method and conditions named. A result given as binding can be weak or reduced; the word gives no strength. For some of these results: Where a sequence is shown, tags or fusion partners need not be part of it. For some of these results: In cells and extracts the contact can be indirect. One block for each molecule: values may come before it.
